In the supplement of paper PMC10849652:
The other results are listed elsewhere or left out.

Amino acid sequences for entries named in this document (tags omitted). A change or cut given only in a name is not applied to a line headed by its entry.
UniProt P43366: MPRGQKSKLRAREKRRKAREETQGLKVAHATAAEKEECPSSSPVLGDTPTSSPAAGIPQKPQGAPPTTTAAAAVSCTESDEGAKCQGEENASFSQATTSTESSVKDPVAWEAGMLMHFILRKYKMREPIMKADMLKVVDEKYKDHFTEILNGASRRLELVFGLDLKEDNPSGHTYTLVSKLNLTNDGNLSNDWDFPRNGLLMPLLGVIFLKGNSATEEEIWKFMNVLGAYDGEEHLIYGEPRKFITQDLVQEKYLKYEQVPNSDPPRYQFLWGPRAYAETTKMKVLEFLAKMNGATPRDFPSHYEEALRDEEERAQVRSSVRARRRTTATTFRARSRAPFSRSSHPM
UniProt Q8WXG6, whole entry, looked up: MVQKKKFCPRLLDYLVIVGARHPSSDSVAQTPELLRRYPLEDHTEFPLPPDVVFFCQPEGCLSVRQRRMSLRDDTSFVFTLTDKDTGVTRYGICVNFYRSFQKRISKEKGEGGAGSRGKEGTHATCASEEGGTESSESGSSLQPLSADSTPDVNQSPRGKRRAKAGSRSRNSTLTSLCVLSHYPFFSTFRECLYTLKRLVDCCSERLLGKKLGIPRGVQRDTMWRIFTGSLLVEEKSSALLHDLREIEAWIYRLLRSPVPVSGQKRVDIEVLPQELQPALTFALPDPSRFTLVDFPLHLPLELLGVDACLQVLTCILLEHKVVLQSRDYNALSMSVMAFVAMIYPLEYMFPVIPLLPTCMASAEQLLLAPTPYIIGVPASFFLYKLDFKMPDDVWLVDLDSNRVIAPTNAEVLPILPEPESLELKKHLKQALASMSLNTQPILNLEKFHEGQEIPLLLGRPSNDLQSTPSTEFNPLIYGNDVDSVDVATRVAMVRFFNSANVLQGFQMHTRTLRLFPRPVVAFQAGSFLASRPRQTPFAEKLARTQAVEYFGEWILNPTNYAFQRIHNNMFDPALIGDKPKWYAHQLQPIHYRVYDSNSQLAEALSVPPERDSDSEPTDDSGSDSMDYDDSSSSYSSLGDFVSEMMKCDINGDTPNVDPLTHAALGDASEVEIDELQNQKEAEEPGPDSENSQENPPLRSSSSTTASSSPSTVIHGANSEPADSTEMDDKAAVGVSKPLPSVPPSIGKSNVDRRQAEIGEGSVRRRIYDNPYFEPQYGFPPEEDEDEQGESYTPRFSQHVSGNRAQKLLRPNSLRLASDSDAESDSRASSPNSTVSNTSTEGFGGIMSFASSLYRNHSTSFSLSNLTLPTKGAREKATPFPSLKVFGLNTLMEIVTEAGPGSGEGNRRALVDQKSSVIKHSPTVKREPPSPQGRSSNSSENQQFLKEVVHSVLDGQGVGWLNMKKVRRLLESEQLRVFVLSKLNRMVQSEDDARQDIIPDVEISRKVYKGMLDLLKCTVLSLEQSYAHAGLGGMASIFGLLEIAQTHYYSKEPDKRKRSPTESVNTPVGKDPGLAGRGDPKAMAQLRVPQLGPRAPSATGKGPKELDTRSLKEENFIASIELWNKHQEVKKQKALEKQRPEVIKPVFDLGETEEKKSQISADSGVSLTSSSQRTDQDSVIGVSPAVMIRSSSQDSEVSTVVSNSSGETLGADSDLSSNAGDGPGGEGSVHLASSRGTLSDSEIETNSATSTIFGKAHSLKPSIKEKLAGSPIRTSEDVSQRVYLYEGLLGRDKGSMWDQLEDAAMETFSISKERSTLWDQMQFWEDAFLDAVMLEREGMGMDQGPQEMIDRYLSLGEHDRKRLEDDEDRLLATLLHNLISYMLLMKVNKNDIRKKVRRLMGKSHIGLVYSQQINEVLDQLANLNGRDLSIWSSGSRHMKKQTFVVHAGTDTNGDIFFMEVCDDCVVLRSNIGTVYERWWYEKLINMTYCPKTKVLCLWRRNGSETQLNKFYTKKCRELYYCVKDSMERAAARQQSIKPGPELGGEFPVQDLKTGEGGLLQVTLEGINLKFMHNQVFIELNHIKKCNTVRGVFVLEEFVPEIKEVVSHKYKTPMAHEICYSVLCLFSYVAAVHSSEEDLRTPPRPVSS
UniProt Q9Y250: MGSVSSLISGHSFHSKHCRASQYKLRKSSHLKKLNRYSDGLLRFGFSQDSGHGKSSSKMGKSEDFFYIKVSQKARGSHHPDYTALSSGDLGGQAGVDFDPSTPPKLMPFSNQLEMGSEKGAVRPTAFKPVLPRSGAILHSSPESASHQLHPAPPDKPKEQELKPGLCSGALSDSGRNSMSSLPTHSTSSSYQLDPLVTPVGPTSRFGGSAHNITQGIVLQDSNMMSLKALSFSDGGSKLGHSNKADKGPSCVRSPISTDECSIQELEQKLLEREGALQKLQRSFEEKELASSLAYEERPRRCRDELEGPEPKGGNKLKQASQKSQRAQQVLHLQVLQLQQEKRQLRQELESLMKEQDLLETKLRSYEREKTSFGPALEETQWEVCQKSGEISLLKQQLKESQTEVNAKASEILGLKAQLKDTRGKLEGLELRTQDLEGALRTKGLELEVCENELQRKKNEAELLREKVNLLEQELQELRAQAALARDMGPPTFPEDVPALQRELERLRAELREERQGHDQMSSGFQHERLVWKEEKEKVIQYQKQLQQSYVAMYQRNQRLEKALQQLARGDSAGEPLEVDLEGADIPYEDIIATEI
UniProt Q8IV50: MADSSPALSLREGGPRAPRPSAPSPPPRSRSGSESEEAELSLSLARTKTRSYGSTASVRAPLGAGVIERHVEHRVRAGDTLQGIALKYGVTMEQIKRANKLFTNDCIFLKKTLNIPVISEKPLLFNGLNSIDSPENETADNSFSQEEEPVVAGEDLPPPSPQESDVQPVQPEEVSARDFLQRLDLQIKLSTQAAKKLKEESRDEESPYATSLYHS
UniProt Q13163: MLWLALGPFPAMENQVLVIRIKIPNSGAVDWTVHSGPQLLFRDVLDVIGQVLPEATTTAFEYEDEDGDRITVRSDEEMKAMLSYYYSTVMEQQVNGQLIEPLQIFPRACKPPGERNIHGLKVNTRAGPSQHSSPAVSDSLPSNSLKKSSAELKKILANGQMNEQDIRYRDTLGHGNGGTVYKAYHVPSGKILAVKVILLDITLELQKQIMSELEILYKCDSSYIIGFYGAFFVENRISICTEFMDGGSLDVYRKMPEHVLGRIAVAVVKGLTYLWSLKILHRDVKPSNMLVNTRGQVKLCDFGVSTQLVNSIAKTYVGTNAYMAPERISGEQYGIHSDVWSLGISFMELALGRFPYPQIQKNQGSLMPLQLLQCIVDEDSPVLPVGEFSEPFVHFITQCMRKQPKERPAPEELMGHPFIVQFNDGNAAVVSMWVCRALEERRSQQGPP
UniProt Q9Y6D9: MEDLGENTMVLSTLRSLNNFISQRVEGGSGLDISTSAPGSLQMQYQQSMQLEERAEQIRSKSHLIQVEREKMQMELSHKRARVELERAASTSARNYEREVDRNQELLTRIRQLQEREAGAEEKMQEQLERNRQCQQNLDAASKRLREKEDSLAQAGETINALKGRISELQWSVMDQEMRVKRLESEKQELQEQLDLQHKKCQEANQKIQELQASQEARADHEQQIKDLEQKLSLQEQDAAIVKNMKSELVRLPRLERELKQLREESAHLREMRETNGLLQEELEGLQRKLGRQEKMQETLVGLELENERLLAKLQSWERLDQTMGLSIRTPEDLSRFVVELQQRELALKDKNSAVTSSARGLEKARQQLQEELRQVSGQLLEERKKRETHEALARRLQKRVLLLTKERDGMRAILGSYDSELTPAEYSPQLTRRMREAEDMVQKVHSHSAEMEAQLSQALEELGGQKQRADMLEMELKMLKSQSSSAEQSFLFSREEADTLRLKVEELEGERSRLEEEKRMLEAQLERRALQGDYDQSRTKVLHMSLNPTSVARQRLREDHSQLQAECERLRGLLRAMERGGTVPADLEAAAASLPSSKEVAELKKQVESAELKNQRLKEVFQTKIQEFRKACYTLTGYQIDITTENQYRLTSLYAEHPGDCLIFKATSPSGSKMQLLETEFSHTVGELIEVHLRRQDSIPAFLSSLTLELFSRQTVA
UniProt Q8WVR3: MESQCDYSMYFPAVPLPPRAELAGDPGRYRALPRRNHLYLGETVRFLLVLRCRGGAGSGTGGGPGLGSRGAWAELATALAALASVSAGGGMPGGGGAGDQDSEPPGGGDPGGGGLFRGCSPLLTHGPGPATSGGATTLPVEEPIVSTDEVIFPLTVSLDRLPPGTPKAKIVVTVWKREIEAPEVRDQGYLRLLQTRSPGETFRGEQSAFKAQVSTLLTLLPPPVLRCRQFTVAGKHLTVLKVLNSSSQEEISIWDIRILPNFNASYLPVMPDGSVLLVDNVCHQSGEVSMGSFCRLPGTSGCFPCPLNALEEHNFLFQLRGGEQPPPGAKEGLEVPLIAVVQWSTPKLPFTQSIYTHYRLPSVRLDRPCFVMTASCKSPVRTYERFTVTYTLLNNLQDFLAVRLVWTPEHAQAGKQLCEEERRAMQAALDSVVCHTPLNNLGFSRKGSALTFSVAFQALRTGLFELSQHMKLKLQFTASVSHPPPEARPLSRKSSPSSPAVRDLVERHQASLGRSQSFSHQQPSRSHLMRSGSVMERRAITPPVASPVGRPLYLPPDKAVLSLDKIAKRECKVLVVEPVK
UniProt Q9P0L2: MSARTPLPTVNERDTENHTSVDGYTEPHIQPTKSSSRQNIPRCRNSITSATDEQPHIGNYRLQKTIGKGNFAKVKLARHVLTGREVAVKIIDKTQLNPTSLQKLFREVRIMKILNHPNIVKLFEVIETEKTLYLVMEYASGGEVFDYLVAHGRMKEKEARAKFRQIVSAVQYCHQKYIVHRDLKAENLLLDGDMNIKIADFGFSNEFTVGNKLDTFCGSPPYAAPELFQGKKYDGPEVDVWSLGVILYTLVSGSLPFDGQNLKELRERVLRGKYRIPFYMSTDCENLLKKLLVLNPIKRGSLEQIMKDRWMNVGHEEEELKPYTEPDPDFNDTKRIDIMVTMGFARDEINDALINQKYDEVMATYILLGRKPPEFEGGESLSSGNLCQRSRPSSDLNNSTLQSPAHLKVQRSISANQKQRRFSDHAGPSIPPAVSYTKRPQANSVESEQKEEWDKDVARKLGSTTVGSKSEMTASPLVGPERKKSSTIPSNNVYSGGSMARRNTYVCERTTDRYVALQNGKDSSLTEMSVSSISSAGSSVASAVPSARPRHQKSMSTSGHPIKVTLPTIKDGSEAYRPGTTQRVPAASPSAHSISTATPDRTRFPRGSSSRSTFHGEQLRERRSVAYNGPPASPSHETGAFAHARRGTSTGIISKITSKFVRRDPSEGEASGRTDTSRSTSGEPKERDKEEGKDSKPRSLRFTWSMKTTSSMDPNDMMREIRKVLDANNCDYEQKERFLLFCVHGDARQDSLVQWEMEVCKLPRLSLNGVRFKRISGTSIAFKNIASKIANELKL
UniProt P55145: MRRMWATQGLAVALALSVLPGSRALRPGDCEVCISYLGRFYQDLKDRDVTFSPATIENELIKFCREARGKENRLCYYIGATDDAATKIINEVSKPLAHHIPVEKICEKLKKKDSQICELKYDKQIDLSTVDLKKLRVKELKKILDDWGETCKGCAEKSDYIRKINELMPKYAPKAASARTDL
UniProt P43355: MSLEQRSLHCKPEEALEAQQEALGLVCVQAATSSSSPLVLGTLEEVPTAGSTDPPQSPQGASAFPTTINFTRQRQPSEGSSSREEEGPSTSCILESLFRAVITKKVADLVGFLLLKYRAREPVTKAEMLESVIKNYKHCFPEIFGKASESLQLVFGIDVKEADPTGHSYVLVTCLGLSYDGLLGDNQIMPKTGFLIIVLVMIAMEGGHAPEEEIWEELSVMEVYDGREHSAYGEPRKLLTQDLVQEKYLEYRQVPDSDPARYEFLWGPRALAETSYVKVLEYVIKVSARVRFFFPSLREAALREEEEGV
UniProt O75608: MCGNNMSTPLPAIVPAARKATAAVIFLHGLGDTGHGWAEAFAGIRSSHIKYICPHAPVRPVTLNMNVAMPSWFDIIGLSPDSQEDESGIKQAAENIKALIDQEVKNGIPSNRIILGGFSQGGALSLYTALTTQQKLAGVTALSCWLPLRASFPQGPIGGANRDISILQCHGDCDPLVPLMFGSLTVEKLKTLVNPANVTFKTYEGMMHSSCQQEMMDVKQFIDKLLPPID

Experiments:
Experiment in all cases: log2 fold change, soluble protein after heating vs DMSO (PISA); higher = thermal stabilisation; K562 lysate, 10 uM; active = over 0.2 and 3.5 SD of the protein, either way, in both replicates (recomputed)
[1] = compound: C=CC(=O)N1CCC[C@@H](n2nc(-c3ccc(Oc4ccccc4)cc3)c3c(N)ncnc32)C1 [ibrutinib]
Summary of the method: (§1)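 K562 pellets were dounce-homogenised in PBS pH 7.4 with 1 mM MgCl2, and the crude extract at 1 mg/mL protein was treated with 10 μM compound for 30 min. Aliquots were heated for 3 min across 48°C-58°C, pooled, and brought to 0.5% NP-40 at 4°C; soluble protein was the supernatant after 21,000xg for 90 min. Soluble protein was quantified by TMTpro 16plex LC-MS/MS with channel sums equalised, and reported as log2 fold change in thermal stability against DMSO controls, with values from duplicates.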

[2] = compound: CC(=O)c1cnc2ccc(-c3cc(Cl)c(O)c(Cl)c3)nc2c1N[C@H]1CC[C@H](CN(C)C)CC1
Summary of the method: as §1

[3] = compound: CC(C)(C)Cn1c(N)nc2ccc(-c3[nH]c(C(C)(C)C)nc3-c3ccc(F)cc3)nc21 [ralimetinib]
Summary of the method: as §1

[4] = compound: CC(C)(O)CC(=O)NCCn1ccc2ncnc(Nc3ccc(Oc4cccc(C(F)(F)F)c4)c(Cl)c3)c21
Summary of the method: as §1

[5] = compound: CC(C)C1=C2N=C(C=C(N2N=C1)NCC3=CC=CC=C3)NCCCCCCN
Summary of the method: as §1

[6] = compound: CC1=C(C(CC(=O)N1)C2=CC=C(C=C2)C(F)(F)F)C(=O)NC3=C(C=C4C(=C3)C=NN4)F
Summary of the method: as §1

[7] = compound: CC1=C(C2=C(C=C1)C(=O)C3=CC=CC=C3N2CCCN)C
Summary of the method: as §1

[8] = compound: CC1=C(C=C(C=C1)NC(=O)C2=CC(=CC=C2)C(C)(C)C#N)NC3=CC4=C(C=C3)N=CN(C4=O)C
Summary of the method: as §1

[9] = compound: CC1=C(C=C(C=C1)NC(=O)C2=CC(=CC=C2)N(C)C)NC(=O)C3=CC=C(C=C3)O
Summary of the method: as §1

[10] = compound: CC1=CC=C(C=C1)SC2=C3C=C(SC3=CN=C2)C(=O)N
Summary of the method: as §1

[11] = compound: CCCS(=O)(=O)Nc1ccc(F)c(C(=O)c2c[nH]c3ncc(-c4ccc(Cl)cc4)cc23)c1F [vemurafenib]
Summary of the method: as §1

[12] = compound: CCCS(=O)(=O)Nc1ccc(F)c(C(=O)c2c[nH]c3ncc(Cl)cc23)c1F
Summary of the method: as §1

[13] = compound: CCN(CCCOc1ccc2c(Nc3cc(CC(=O)Nc4cccc(F)c4)[nH]n3)ncnc2c1)CCOP(=O)(O)O [barasertib]
Summary of the method: as §1

[14] = compound: CC[C@@H]1C(=O)N(C)c2cnc(Nc3ccc(C(=O)NC4CCN(C)CC4)cc3OC)nc2N1C1CCCC1
Summary of the method: as §1

[15] = compound: CC[C@@H]1C(=O)N(C)c2cnc(Nc3ccc(C(=O)N[C@H]4CC[C@H](N5CCN(CC6CC6)CC5)CC4)cc3OC)nc2N1C(C)C [volasertib]
Summary of the method: as §1

[16] = compound: CCn1c(C(=O)N(C2CC2)C2CC2)cc2c3c(ncn3C)c(Nc3cc(C)n(C)n3)nc21
Summary of the method: as §1

[17] = compound: CCn1cc(-c2ccnc3[nH]c(-c4cccc(CN(C)C)c4)cc23)c(-c2ccc(NC(=O)N(C)C)cc2)n1
Summary of the method: as §1

[18] = compound: CN1CCC(CNc2ccc3ncc(-c4cccc(OC(F)(F)F)c4)n3n2)CC1
Summary of the method: as §1

[19] = compound: CN1CCN(CCOc2cc(OC3CCOCC3)c3c(Nc4c(Cl)ccc5c4OCO5)ncnc3c2)CC1 [saracatinib]
Summary of the method: as §1

[20] = compound: CN1CCN(c2nc(C3=C(c4c[nH]c5ccccc45)C(=O)NC3=O)c3ccccc3n2)CC1 [sotrastaurin]
Summary of the method: as §1

Row | Target | log2 fold change [1] | log2 fold change [2] | log2 fold change [3] | log2 fold change [4] | log2 fold change [5] | log2 fold change [6] | log2 fold change [7] | log2 fold change [8] | log2 fold change [9] | log2 fold change [10] | log2 fold change [11] | log2 fold change [12] | log2 fold change [13] | log2 fold change [14] | log2 fold change [15] | log2 fold change [16] | log2 fold change [17] | log2 fold change [18] | log2 fold change [19] | log2 fold change [20]
1 | MAGEB1 (UniProt P43366) | inactive: -0.001 | inactive: 0 | inactive: 0.033 | inactive: 0.004 | inactive: 0.03 | inactive: -0.005 | inactive: -0.08 | inactive: -0.028 | inactive: 0.023 | inactive: 0.017 | inactive: 0.022 | inactive: 0.024 | inactive: -0.01 | inactive: -0.08 | inactive: -0.038 | inactive: -0.015 | inactive: -0.014 | inactive: -0.018 | inactive: 0.029 | inactive: 0.041
2 | MADD isoform 4 (UniProt Q8WXG6) | inactive: 0.034 | inactive: -0.018 | inactive: -0.023 | inactive: -0.039 | inactive: -0.001 | inactive: 0.032 | inactive: -0.007 | inactive: -0.009 | inactive: 0.021 | inactive: -0.011 | inactive: 0.009 | inactive: 0.031 | inactive: 0.016 | inactive: 0 | inactive: -0.01 | inactive: 0 | inactive: 0.001 | inactive: -0.016 | inactive: 0.036 | inactive: 0.003
3 | LYAR (UniProt Q9NX58) | inactive: -0.009 | inactive: -0.035 | inactive: -0.011 | inactive: 0.016 | inactive: 0.004 | inactive: 0.03 | inactive: -0.012 | inactive: 0.016 | inactive: 0.015 | inactive: 0.038 | inactive: 0.011 | inactive: 0.005 | inactive: -0.024 | inactive: 0.005 | inactive: 0.003 | inactive: -0.027 | active: 0.312 | inactive: -0.128 | inactive: 0.028 | inactive: -0.039
4 | LZTS1 (UniProt Q9Y250) | inactive: 0.104 | inactive: -0.008 | inactive: 0.049 | inactive: -0.176 | inactive: 0.116 | inactive: -0.028 | inactive: -0.233 | inactive: 0.705 | inactive: -0.111 | inactive: -0.007 | inactive: -0.047 | inactive: -0.034 | inactive: 0.218 | inactive: 0.042 | inactive: 0.074 | inactive: -0.53 | inactive: 0.493 | inactive: -0.132 | inactive: 0 | inactive: -0.116
5 | MACF1 isoform 3 (UniProt Q9UPN3) | inactive: 0 | inactive: -0.027 | inactive: 0.006 | inactive: -0.012 | inactive: 0 | inactive: 0.001 | inactive: 0.004 | inactive: 0.005 | inactive: 0.015 | inactive: 0.003 | inactive: 0.002 | inactive: 0.047 | inactive: 0.022 | inactive: -0.006 | inactive: -0.034 | inactive: -0.009 | inactive: -0.056 | inactive: -0.005 | inactive: 0.021 | inactive: 0.018
6 | LYSMD2 (UniProt Q8IV50) | inactive: -0.032 | inactive: 0.016 | inactive: -0.002 | inactive: 0.011 | inactive: -0.073 | inactive: 0.022 | inactive: -0.063 | inactive: -0.031 | inactive: -0.027 | inactive: -0.016 | inactive: -0.041 | inactive: -0.003 | inactive: -0.005 | inactive: 0.057 | inactive: 0.025 | inactive: 0.014 | inactive: 0.024 | inactive: 0.026 | inactive: 0.002 | inactive: 0.019
7 | MAP2K5 (UniProt Q13163) | inactive: 0.007 | inactive: -0.013 | inactive: 0.103 | inactive: -0.075 | inactive: -0.078 | inactive: -0.037 | inactive: -0.208 | inactive: 0.235 | inactive: 0.052 | inactive: -0.211 | inactive: 0.207 | inactive: 0.302 | inactive: 0.019 | inactive: -0.148 | inactive: -0.311 | inactive: -0.144 | inactive: 0.15 | inactive: -0.029 | inactive: -0.079 | inactive: 0.014
8 | MAPK8 isoform 3 (UniProt P45983) | inactive: 0.038 | active: 0.445 | inactive: 0.294 | inactive: 0.025 | inactive: 0.035 | inactive: -0.057 | inactive: -0.017 | inactive: 0.013 | inactive: 0.047 | inactive: -0.012 | inactive: 0.06 | inactive: 0.022 | inactive: 0.007 | inactive: -0.123 | inactive: -0.02 | inactive: -0.005 | inactive: 0.013 | inactive: 0.055 | inactive: 0.027 | inactive: 0.01
9 | MAD1L1 (UniProt Q9Y6D9) | inactive: 0.006 | inactive: 0.003 | inactive: -0.047 | inactive: -0.019 | inactive: 0.006 | inactive: 0.024 | inactive: -0.058 | inactive: 0.074 | inactive: -0.022 | inactive: -0.027 | inactive: -0.017 | inactive: 0.034 | inactive: 0.043 | inactive: 0.041 | inactive: -0.035 | inactive: 0.019 | inactive: -0.03 | inactive: -0.034 | inactive: 0.004 | inactive: -0.045
10 | MAPK14 (UniProt Q16539) | inactive: 0.042 | inactive: 0.238 | active: 1.16 | inactive: -0.008 | inactive: -0.06 | inactive: -0.14 | inactive: -0.026 | active: 0.88 | inactive: 0.455 | inactive: -0.007 | inactive: 0.175 | inactive: 0.081 | inactive: 0.021 | inactive: -0.192 | inactive: -0.056 | inactive: -0.052 | inactive: -0.035 | inactive: 0.093 | inactive: 0.226 | inactive: -0.058
11 | MAP11 (UniProt Q8WVR3) | inactive: 0.064 | inactive: 0.072 | inactive: 0.037 | inactive: -0.008 | inactive: -0.005 | inactive: 0.105 | inactive: -0.063 | inactive: 0.014 | inactive: -0.031 | inactive: 0.078 | inactive: -0.032 | inactive: 0.044 | inactive: 0.07 | inactive: 0.129 | inactive: -0.079 | inactive: 0.086 | inactive: 0.049 | inactive: 0.06 | inactive: 0.033 | inactive: -0.039
12 | MARK1 (UniProt Q9P0L2) | inactive: -0.006 | inactive: -0.054 | inactive: 0.078 | inactive: 0.046 | inactive: 0.021 | inactive: 0.011 | inactive: 0.021 | inactive: 0.07 | inactive: 0.04 | inactive: 0.007 | inactive: -0.006 | inactive: 0.064 | inactive: -0.038 | inactive: -0.045 | inactive: -0.019 | inactive: -0.018 | inactive: -0.06 | inactive: -0.241 | inactive: 0.021 | inactive: -0.17
13 | LTF (UniProt P02788) | inactive: -0.205 | inactive: 0.038 | inactive: 0.052 | inactive: 0.613 | inactive: 1.36 | inactive: 1.29 | inactive: 0.131 | inactive: 0.248 | inactive: 0.034 | inactive: 0.003 | inactive: -0.02 | inactive: -0.08 | inactive: -0.248 | inactive: -0.112 | inactive: 0.044 | inactive: -0.029 | inactive: 0.4 | inactive: -0.241 | inactive: -0.031 | inactive: -0.151
14 | MANF (UniProt P55145) | inactive: -0.002 | inactive: 0.003 | inactive: -0.036 | inactive: -0.01 | inactive: 0.012 | inactive: -0.008 | inactive: 0.035 | inactive: -0.019 | inactive: -0.033 | inactive: 0.006 | inactive: -0.018 | inactive: 0.003 | inactive: 0.004 | inactive: 0.015 | inactive: 0.024 | inactive: 0 | inactive: -0.038 | inactive: 0.034 | inactive: -0.057 | inactive: 0.031
15 | MAGEA1 (UniProt P43355) | inactive: 0.075 | inactive: 0.074 | inactive: 0.028 | inactive: 0.014 | inactive: -0.002 | inactive: 0.038 | inactive: 0.007 | inactive: -0.077 | inactive: 0.019 | inactive: 0.064 | inactive: -0.036 | inactive: 0.033 | inactive: 0.116 | inactive: -0.023 | inactive: -0.016 | inactive: -0.028 | inactive: 0.12 | inactive: -0.044 | inactive: 0.029 | inactive: 0.044
16 | LYPLA1 (UniProt O75608) | inactive: 0.009 | inactive: -0.02 | inactive: -0.014 | inactive: -0.019 | inactive: 0.005 | inactive: -0.031 | inactive: -0.019 | inactive: -0.009 | inactive: -0.044 | inactive: 0.056 | inactive: -0.011 | inactive: -0.051 | inactive: 0.079 | inactive: -0.035 | inactive: 0.021 | inactive: 0.014 | inactive: -0.007 | inactive: -0.09 | inactive: -0.021 | inactive: -0.019

2 entries from above, as comma-separated lines.
Row,Target,log2 fold change [1],log2 fold change [2],log2 fold change [3],log2 fold change [4],log2 fold change [5],log2 fold change [6],log2 fold change [7],log2 fold change [8],log2 fold change [9],log2 fold change [10],log2 fold change [11],log2 fold change [12],log2 fold change [13],log2 fold change [14],log2 fold change [15],log2 fold change [16],log2 fold change [17],log2 fold change [18],log2 fold change [19],log2 fold change [20]
9,MAD1L1 (UniProt Q9Y6D9),inactive: 0.006,inactive: 0.003,inactive: -0.047,inactive: -0.019,inactive: 0.006,inactive: 0.024,inactive: -0.058,inactive: 0.074,inactive: -0.022,inactive: -0.027,inactive: -0.017,inactive: 0.034,inactive: 0.043,inactive: 0.041,inactive: -0.035,inactive: 0.019,inactive: -0.03,inactive: -0.034,inactive: 0.004,inactive: -0.045
10,MAPK14 (UniProt Q16539),inactive: 0.042,inactive: 0.238,active: 1.16,inactive: -0.008,inactive: -0.06,inactive: -0.14,inactive: -0.026,active: 0.88,inactive: 0.455,inactive: -0.007,inactive: 0.175,inactive: 0.081,inactive: 0.021,inactive: -0.192,inactive: -0.056,inactive: -0.052,inactive: -0.035,inactive: 0.093,inactive: 0.226,inactive: -0.058
